# Experimental data from the supplement of paper PMC11438910.
# The other results are listed elsewhere or left out. Most of these values are background signal.
# Tests used:
# Test in all cases: fluorescence intensity of antibody binding to polysaccharide-coupled beads; higher = stronger binding
# [1] = target: pneumococcal polysaccharide Pn33B
# [2] = target: pneumococcal polysaccharide Pn33C
# [3] = target: pneumococcal polysaccharide Pn33D
# [4] = target: pneumococcal polysaccharide Pn33F
# [5] = target: pneumococcal polysaccharide Pn34
# [6] = target: pneumococcal polysaccharide Pn35A
# [7] = target: pneumococcal polysaccharide Pn35B
# [8] = target: pneumococcal polysaccharide Pn35C
# [9] = target: pneumococcal polysaccharide Pn35F
# [10] = target: pneumococcal polysaccharide Pn36
# [11] = target: pneumococcal polysaccharide Pn37
# [12] = target: pneumococcal polysaccharide Pn38
# [13] = target: pneumococcal polysaccharide Pn39
# [14] = target: pneumococcal polysaccharide Pn4
# [15] = target: pneumococcal polysaccharide Pn40
# [16] = target: pneumococcal polysaccharide Pn41A
# [17] = target: pneumococcal polysaccharide Pn41F
# [18] = target: pneumococcal polysaccharide Pn42
# [19] = target: pneumococcal polysaccharide Pn43
# [20] = target: pneumococcal polysaccharide Pn44
# [21] = target: pneumococcal polysaccharide Pn45
# [22] = target: pneumococcal polysaccharide Pn46
# [23] = target: pneumococcal polysaccharide Pn47A
# [24] = antibody concentration 2.8593 ng/mL
# [25] = antibody concentration 15.2894 ng/mL
# [26] = antibody concentration 81.7561 ng/mL
# [27] = antibody concentration 437.17 ng/mL
# [28] = antibody concentration 2337.65 ng/mL
# [29] = antibody concentration 12500 ng/mL
# [30] = antibody concentration 0.1 ng/mL
# [31] = antibody concentration 0.534724 ng/mL
binder,measurement,setting,value
4-80.4 (protein) chain 1: QVQLQESGPGLVKPSETLSLTCAVSGGSFSSYWWSWIRQSPGKGLEWIGEISGNSGSTNYNPSLKSRVTISKDASKNQFSLKLSSVTAADTAVYYCARYKEYWGQGVLVTVSS chain 2: DVVMTQSPLSLLITPGQPASISCRSSQSLVHSNGNTYLSWYQQKPGQPPRRLLYEVSNRDSGVPDRFSGSGAGTDFTLKISRVEAEDVGVYYCGQGTHLPYSFGQGTKVEIK,fluorescence intensity,[1]; [24],18.2 MFI
same,fluorescence intensity,[1]; [25],18.5 MFI
same,fluorescence intensity,[1]; [26],17.2 MFI
same,fluorescence intensity,[1]; [27],18 MFI
same,fluorescence intensity,[1]; [28],19 MFI
same,fluorescence intensity,[1]; [29],19.5 MFI
same,fluorescence intensity,[2]; [30],18.2 MFI
same,fluorescence intensity,[2]; [31],19.5 MFI
same,fluorescence intensity,[2]; [24],21.2 MFI
same,fluorescence intensity,[2]; [25],20 MFI
same,fluorescence intensity,[2]; [26],18 MFI
same,fluorescence intensity,[2]; [27],18.5 MFI
same,fluorescence intensity,[2]; [28],20.5 MFI
same,fluorescence intensity,[2]; [29],32 MFI
same,fluorescence intensity,[3]; [30],16.8 MFI
same,fluorescence intensity,[3]; [31],17 MFI
same,fluorescence intensity,[3]; [24],17 MFI
same,fluorescence intensity,[3]; [25],15.8 MFI
same,fluorescence intensity,[3]; [26],17.5 MFI
same,fluorescence intensity,[3]; [27],17.5 MFI
same,fluorescence intensity,[3]; [28],15.5 MFI
same,fluorescence intensity,[3]; [29],21.5 MFI
same,fluorescence intensity,[4]; [30],11.5 MFI
same,fluorescence intensity,[4]; [31],13.5 MFI
same,fluorescence intensity,[4]; [24],12.8 MFI
same,fluorescence intensity,[4]; [25],13.5 MFI
same,fluorescence intensity,[4]; [26],13.8 MFI
same,fluorescence intensity,[4]; [27],13.2 MFI
same,fluorescence intensity,[4]; [28],19 MFI
same,fluorescence intensity,[4]; [29],58.5 MFI
same,fluorescence intensity,[5]; [30],12.5 MFI
same,fluorescence intensity,[5]; [31],14.2 MFI
same,fluorescence intensity,[5]; [24],13 MFI
same,fluorescence intensity,[5]; [25],15 MFI
same,fluorescence intensity,[5]; [26],14 MFI
same,fluorescence intensity,[5]; [27],15.8 MFI
same,fluorescence intensity,[5]; [28],15 MFI
same,fluorescence intensity,[5]; [29],18 MFI
same,fluorescence intensity,[6]; [30],16.8 MFI
same,fluorescence intensity,[6]; [31],16 MFI
same,fluorescence intensity,[6]; [24],16.5 MFI
same,fluorescence intensity,[6]; [25],17.5 MFI
same,fluorescence intensity,[6]; [26],16.8 MFI
same,fluorescence intensity,[6]; [27],17 MFI
same,fluorescence intensity,[6]; [28],19 MFI
same,fluorescence intensity,[6]; [29],42.8 MFI
same,fluorescence intensity,[7]; [30],17 MFI
same,fluorescence intensity,[7]; [31],17.5 MFI
same,fluorescence intensity,[7]; [24],17 MFI
same,fluorescence intensity,[7]; [25],16.5 MFI
same,fluorescence intensity,[7]; [26],18.5 MFI
same,fluorescence intensity,[7]; [27],20.5 MFI
same,fluorescence intensity,[7]; [28],21.5 MFI
same,fluorescence intensity,[7]; [29],32.5 MFI
same,fluorescence intensity,[8]; [30],20 MFI
same,fluorescence intensity,[8]; [31],20 MFI
same,fluorescence intensity,[8]; [24],20.5 MFI
same,fluorescence intensity,[8]; [25],19 MFI
same,fluorescence intensity,[8]; [26],20.5 MFI
same,fluorescence intensity,[8]; [27],19 MFI
same,fluorescence intensity,[8]; [28],21.5 MFI
same,fluorescence intensity,[8]; [29],23 MFI
same,fluorescence intensity,[9]; [30],21 MFI
same,fluorescence intensity,[9]; [31],19 MFI
same,fluorescence intensity,[9]; [24],21 MFI
same,fluorescence intensity,[9]; [25],21 MFI
same,fluorescence intensity,[9]; [26],19.5 MFI
same,fluorescence intensity,[9]; [27],18.5 MFI
same,fluorescence intensity,[9]; [28],19.8 MFI
same,fluorescence intensity,[9]; [29],19.5 MFI
same,fluorescence intensity,[10]; [30],15 MFI
same,fluorescence intensity,[10]; [31],15 MFI
same,fluorescence intensity,[10]; [24],14 MFI
same,fluorescence intensity,[10]; [25],15.2 MFI
same,fluorescence intensity,[10]; [26],15 MFI
same,fluorescence intensity,[10]; [27],15 MFI
same,fluorescence intensity,[10]; [28],18.5 MFI
same,fluorescence intensity,[10]; [29],38 MFI
same,fluorescence intensity,[11]; [30],24.5 MFI
same,fluorescence intensity,[11]; [31],26 MFI
same,fluorescence intensity,[11]; [24],25.5 MFI
same,fluorescence intensity,[11]; [25],24.5 MFI
same,fluorescence intensity,[11]; [26],25.5 MFI
same,fluorescence intensity,[11]; [27],26.5 MFI
same,fluorescence intensity,[11]; [28],33 MFI
same,fluorescence intensity,[11]; [29],128 MFI
same,fluorescence intensity,[12]; [30],25.2 MFI
same,fluorescence intensity,[12]; [31],25 MFI
same,fluorescence intensity,[12]; [24],25.2 MFI
same,fluorescence intensity,[12]; [25],24.8 MFI
same,fluorescence intensity,[12]; [26],24.8 MFI
same,fluorescence intensity,[12]; [27],27.5 MFI
same,fluorescence intensity,[12]; [28],28 MFI
same,fluorescence intensity,[12]; [29],34 MFI
same,fluorescence intensity,[13]; [30],19 MFI
same,fluorescence intensity,[13]; [31],17 MFI
same,fluorescence intensity,[13]; [24],18.2 MFI
same,fluorescence intensity,[13]; [25],19 MFI
same,fluorescence intensity,[13]; [26],19 MFI
same,fluorescence intensity,[13]; [27],18 MFI
same,fluorescence intensity,[13]; [28],19 MFI
same,fluorescence intensity,[13]; [29],33 MFI
same,fluorescence intensity,[14]; [30],17.5 MFI
same,fluorescence intensity,[14]; [31],17 MFI
same,fluorescence intensity,[14]; [24],18 MFI
same,fluorescence intensity,[14]; [25],18 MFI
same,fluorescence intensity,[14]; [26],19 MFI
same,fluorescence intensity,[14]; [27],19 MFI
same,fluorescence intensity,[14]; [28],21 MFI
same,fluorescence intensity,[14]; [29],31.5 MFI
same,fluorescence intensity,[15]; [30],15 MFI
same,fluorescence intensity,[15]; [31],17.5 MFI
same,fluorescence intensity,[15]; [24],17 MFI
same,fluorescence intensity,[15]; [25],16.5 MFI
same,fluorescence intensity,[15]; [26],17 MFI
same,fluorescence intensity,[15]; [27],17 MFI
same,fluorescence intensity,[15]; [28],18.5 MFI
same,fluorescence intensity,[15]; [29],43 MFI
same,fluorescence intensity,[16]; [30],24 MFI
same,fluorescence intensity,[16]; [31],23.5 MFI
same,fluorescence intensity,[16]; [24],22.5 MFI
same,fluorescence intensity,[16]; [25],22.5 MFI
same,fluorescence intensity,[16]; [26],23.5 MFI
same,fluorescence intensity,[16]; [27],24 MFI
same,fluorescence intensity,[16]; [28],24.5 MFI
same,fluorescence intensity,[16]; [29],28.5 MFI
same,fluorescence intensity,[17]; [30],13 MFI
same,fluorescence intensity,[17]; [31],12.5 MFI
same,fluorescence intensity,[17]; [24],12.5 MFI
same,fluorescence intensity,[17]; [25],13.5 MFI
same,fluorescence intensity,[17]; [26],14 MFI
same,fluorescence intensity,[17]; [27],12 MFI
same,fluorescence intensity,[17]; [28],14.5 MFI
same,fluorescence intensity,[17]; [29],19 MFI
same,fluorescence intensity,[18]; [30],11.5 MFI
same,fluorescence intensity,[18]; [31],11.5 MFI
same,fluorescence intensity,[18]; [24],11.5 MFI
same,fluorescence intensity,[18]; [25],12 MFI
same,fluorescence intensity,[18]; [26],10.8 MFI
same,fluorescence intensity,[18]; [27],12.5 MFI
same,fluorescence intensity,[18]; [28],12 MFI
same,fluorescence intensity,[18]; [29],24 MFI
same,fluorescence intensity,[19]; [30],15.5 MFI
same,fluorescence intensity,[19]; [31],13.5 MFI
same,fluorescence intensity,[19]; [24],15.5 MFI
same,fluorescence intensity,[19]; [25],15.5 MFI
same,fluorescence intensity,[19]; [26],16 MFI
same,fluorescence intensity,[19]; [27],16.5 MFI
same,fluorescence intensity,[19]; [28],20.5 MFI
same,fluorescence intensity,[19]; [29],73.5 MFI
same,fluorescence intensity,[20]; [30],23.8 MFI
same,fluorescence intensity,[20]; [31],24 MFI
same,fluorescence intensity,[20]; [24],25.5 MFI
same,fluorescence intensity,[20]; [25],22 MFI
same,fluorescence intensity,[20]; [26],25.5 MFI
same,fluorescence intensity,[20]; [27],24.5 MFI
same,fluorescence intensity,[20]; [28],25.8 MFI
same,fluorescence intensity,[20]; [29],31 MFI
same,fluorescence intensity,[21]; [30],10 MFI
same,fluorescence intensity,[21]; [31],11 MFI
same,fluorescence intensity,[21]; [24],11.5 MFI
same,fluorescence intensity,[21]; [25],10 MFI
same,fluorescence intensity,[21]; [26],11 MFI
same,fluorescence intensity,[21]; [27],11 MFI
same,fluorescence intensity,[21]; [28],12.5 MFI
same,fluorescence intensity,[21]; [29],15.8 MFI
same,fluorescence intensity,[22]; [30],23 MFI
same,fluorescence intensity,[22]; [31],23.5 MFI
same,fluorescence intensity,[22]; [24],23 MFI
same,fluorescence intensity,[22]; [25],24.2 MFI
same,fluorescence intensity,[22]; [26],23 MFI
same,fluorescence intensity,[22]; [27],24.8 MFI
same,fluorescence intensity,[22]; [28],25.5 MFI
same,fluorescence intensity,[22]; [29],43.8 MFI
same,fluorescence intensity,[23]; [30],16 MFI
same,fluorescence intensity,[23]; [31],15.5 MFI
same,fluorescence intensity,[23]; [24],15 MFI
same,fluorescence intensity,[23]; [25],16 MFI
same,fluorescence intensity,[23]; [26],16.5 MFI
same,fluorescence intensity,[23]; [27],15.5 MFI

# Two entries picked at random from the list so far:
binder,measurement,setting,value
4-80.4 (protein) chain 1: QVQLQESGPGLVKPSETLSLTCAVSGGSFSSYWWSWIRQSPGKGLEWIGEISGNSGSTNYNPSLKSRVTISKDASKNQFSLKLSSVTAADTAVYYCARYKEYWGQGVLVTVSS chain 2: DVVMTQSPLSLLITPGQPASISCRSSQSLVHSNGNTYLSWYQQKPGQPPRRLLYEVSNRDSGVPDRFSGSGAGTDFTLKISRVEAEDVGVYYCGQGTHLPYSFGQGTKVEIK,fluorescence intensity,[22]; [29],43.8 MFI
same,fluorescence intensity,[10]; [26],15 MFI

# Some of the entries above, reformatted:
binder | measurement | setting | value
4-80.4 (protein) chain 1: QVQLQESGPGLVKPSETLSLTCAVSGGSFSSYWWSWIRQSPGKGLEWIGEISGNSGSTNYNPSLKSRVTISKDASKNQFSLKLSSVTAADTAVYYCARYKEYWGQGVLVTVSS chain 2: DVVMTQSPLSLLITPGQPASISCRSSQSLVHSNGNTYLSWYQQKPGQPPRRLLYEVSNRDSGVPDRFSGSGAGTDFTLKISRVEAEDVGVYYCGQGTHLPYSFGQGTKVEIK | fluorescence intensity | [1]; [29] | 19.5 MFI
same | fluorescence intensity | [2]; [30] | 18.2 MFI
same | fluorescence intensity | [2]; [31] | 19.5 MFI
